Data reported in patent US12036271B2, “Peptides and combination of peptides as targets or active ingredients for use in immunotherapy against AML and other cancers” (Immatics Biotechnologies GmbH, priority 2016, dated 2024).

Tested on: other tumor types (measured tumor samples)
Assay: Presentation of the peptides on additional tumor types (LC-MS of HLA ligands)
Set-up: species or system human
Details: additional tumor types on which the peptide was over-presented on more than 5% of measured tumor samples, or presented on more than 5% with ratio of geometric means tumor vs normal tissues larger than 3

Row | Substance | Other relevant organs/diseases
1 | 84 (GLLGSVLTI; listed as Homo sapiens) [compound 84] | HCC, NHL, BRCA, Urinary bladder cancer, Uterine Cancer
2 | 86 (HLLGDPMANV; listed as Homo sapiens) [compound 86] | SCLC, OC
3 | 90 (LLLDTVTSI; listed as Homo sapiens) [compound 90] | Brain Cancer, BRCA
4 | 93 (SLINDVLAE; listed as Homo sapiens) [compound 93] | CLL
5 | 94 (SLLEFAQYL; listed as Homo sapiens) [compound 94] | NHL
6 | 104 (ALIPETTTL; listed as Homo sapiens) [compound 104] | NHL, Melanoma
7 | 105 (GVFALVTAV; listed as Homo sapiens) [compound 105] | NHL, BRCA, Melanoma, Uterine Cancer
8 | 106 (ALLEELERSTL; listed as Homo sapiens) [compound 106] | NHL
9 | 107 (ALLGMLPLL; listed as Homo sapiens) [compound 107] | CLL, NHL
10 | 108 (ELEMNSDLKAQL; listed as Homo sapiens) [compound 108] | Uterine Cancer
11 | 112 (ILRDALNQA; listed as Homo sapiens) [compound 112] | RCC, CLL, NHL, Melanoma
12 | 113 (NLQSEVEGV; listed as Homo sapiens) [compound 113] | PC, CLL
13 | 114 (RLAQEAAQV; listed as Homo sapiens) [compound 114] | RCC, OC, Uterine Cancer
14 | 115 (SLPDLTTPL; listed as Homo sapiens) [compound 115] | CLL, NHL, BRCA, Melanoma
15 | 116 (TILEILPEL; listed as Homo sapiens) [compound 116] | RCC, Melanoma, Gallbladder Cancer, Bile Duct Cancer
16 | 117 (TILPTILFL; listed as Homo sapiens) [compound 117] | CLL
17 | 118 (TLLTVLTQA; listed as Homo sapiens) [compound 118] | CLL, NHL
18 | 119 (TLTDELAAL; listed as Homo sapiens) [compound 119] | Gallbladder Cancer, Bile Duct Cancer
19 | 120 (VIQDLVVSV; listed as Homo sapiens) [compound 120] | Melanoma, Uterine Cancer
20 | 121 (VLQAGQYGV; listed as Homo sapiens) [compound 121] | CLL, NHL, Uterine Cancer
21 | 122 (VLYLEEVLL; listed as Homo sapiens) [compound 122] | CLL, NHL, Uterine Cancer
22 | 123 (YTVKINPTL; listed as Homo sapiens) [compound 123] | Gallbladder Cancer, Bile Duct Cancer
23 | 124 (GLPELVIQL; listed as Homo sapiens) [compound 124] | HCC, CLL, NHL, BRCA, Melanoma, Urinary bladder cancer, Uterine Cancer, Gallbladder Cancer, Bile Duct Cancer
24 | 125 (GLFGYLVFL; listed as Homo sapiens) [compound 125] | SCLC, PC
25 | 127 (KIISALPQL; listed as Homo sapiens) [compound 127] | CLL, NHL, Esophageal Cancer, OC, Gallbladder Cancer, Bile Duct Cancer
26 | 128 (NLSTKTEAV; listed as Homo sapiens) [compound 128] | NHL, OC, Uterine Cancer
27 | 129 (RMAVLNEQV; listed as Homo sapiens) [compound 129] | SCLC, NHL

Row | Substance | Other relevant organs/diseases
28 | 132 (SLYPVLNFL; listed as Homo sapiens) [compound 132] | Urinary bladder cancer, Uterine Cancer
29 | 133 (TVIGTLLFL; listed as Homo sapiens) [compound 133] | NHL
30 | 135 (GIIDRIFQA; listed as Homo sapiens) [compound 135] | CRC, HCC, BRCA
31 | 136 (GLSSIETLL; listed as Homo sapiens) [compound 136] | BRCA
32 | 137 (ILAPLAWDL; listed as Homo sapiens) [compound 137] | CLL, NHL, Uterine Cancer
33 | 138 (ILSDNLRQV; listed as Homo sapiens) [compound 138] | NSCLC, HCC, CLL, NHL, Melanoma, Esophageal Cancer, Urinary bladder cancer
34 | 140 (YIPDFLTLL; listed as Homo sapiens) [compound 140] | CLL, Melanoma
35 | 141 (GLLPPLRIPELL; listed as Homo sapiens) [compound 141] | PC, CLL, Urinary bladder cancer, Uterine Cancer, Gallbladder Cancer, Bile Duct Cancer
36 | 142 (GLSDGYGFTT; listed as Homo sapiens) [compound 142] | CRC, PC, CLL, NHL, BRCA, Esophageal Cancer, OC, Urinary bladder cancer
37 | 143 (YLLPHILVY; listed as Homo sapiens) [compound 143] | RCC, Melanoma
38 | 144 (GLFMGLVLV; listed as Homo sapiens) [compound 144] | NHL, BRCA, Melanoma
39 | 148 (FLYFEDHGL; listed as Homo sapiens) [compound 148] | SCLC, CLL, NHL, Melanoma, Uterine Cancer
40 | 149 (GLAEILVLV; listed as Homo sapiens) [compound 149] | RCC, Brain Cancer, NHL, Melanoma
41 | 150 (GLFGVLNEI; listed as Homo sapiens) [compound 150] | CLL, NHL, Uterine Cancer
42 | 151 (GLLPFPEVTL; listed as Homo sapiens) [compound 151] | CLL, NHL
43 | 152 (GLSNHIAAL; listed as Homo sapiens) [compound 152] | PC, NHL
44 | 155 (ILDLIQVFV; listed as Homo sapiens) [compound 155] | RCC, CLL, NHL, Melanoma, Uterine Cancer
45 | 157 (ILTETQQGL; listed as Homo sapiens) [compound 157] | NSCLC, CRC, NHL, BRCA, Melanoma, Urinary bladder cancer
46 | 160 (RLVPFLVFV; listed as Homo sapiens) [compound 160] | CLL
47 | 161 (SLIGIAIAL; listed as Homo sapiens) [compound 161] | BRCA, Esophageal Cancer, Gallbladder Cancer, Bile Duct Cancer
48 | 162 (SLLDFLTFA; listed as Homo sapiens) [compound 162] | NHL
49 | 163 (SLMIDLIEV; listed as Homo sapiens) [compound 163] | Melanoma, OC
50 | 166 (VLFPLNLQL; listed as Homo sapiens) [compound 166] | CLL
51 | 167 (VLLDVALGL; listed as Homo sapiens) [compound 167] | RCC, NHL, BRCA, Melanoma
52 | 168 (VLLFETALL; listed as Homo sapiens) [compound 168] | CLL, BRCA, Urinary bladder cancer
53 | 169 (VLQDPIWLL; listed as Homo sapiens) [compound 169] | CLL, NHL
